Reference: the supplement of paper PMC10849652
The list shows a part of the results.

By UniProt entry, the sequences of proteins in these tests, tags left out. Where a name states a change or a piece, a line headed by the entry shows the natural chain unless it says otherwise.
UniProt Q99595: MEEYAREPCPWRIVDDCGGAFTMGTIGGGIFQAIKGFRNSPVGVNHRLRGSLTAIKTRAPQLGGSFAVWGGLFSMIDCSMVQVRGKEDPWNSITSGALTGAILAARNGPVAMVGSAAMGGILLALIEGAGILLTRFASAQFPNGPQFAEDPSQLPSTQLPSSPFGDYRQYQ
UniProt Q969X1: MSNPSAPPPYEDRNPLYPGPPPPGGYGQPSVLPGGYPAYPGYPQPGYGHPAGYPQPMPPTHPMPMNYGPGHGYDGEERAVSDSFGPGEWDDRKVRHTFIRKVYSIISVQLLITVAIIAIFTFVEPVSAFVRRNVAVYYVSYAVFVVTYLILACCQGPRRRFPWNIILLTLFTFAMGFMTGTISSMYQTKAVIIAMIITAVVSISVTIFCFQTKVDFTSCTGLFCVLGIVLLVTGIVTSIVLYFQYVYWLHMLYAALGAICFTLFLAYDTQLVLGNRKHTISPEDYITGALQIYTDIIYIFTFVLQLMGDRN
UniProt Q9Y5J7: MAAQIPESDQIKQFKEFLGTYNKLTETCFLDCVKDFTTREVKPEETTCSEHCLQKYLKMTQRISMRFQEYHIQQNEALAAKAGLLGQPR
UniProt Q7Z7H5: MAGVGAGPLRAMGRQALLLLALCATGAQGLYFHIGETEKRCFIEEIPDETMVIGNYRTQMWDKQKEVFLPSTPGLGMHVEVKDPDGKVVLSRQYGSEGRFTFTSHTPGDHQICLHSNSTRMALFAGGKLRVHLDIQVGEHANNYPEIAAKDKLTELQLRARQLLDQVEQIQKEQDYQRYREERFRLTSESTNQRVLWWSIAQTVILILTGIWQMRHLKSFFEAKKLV
UniProt Q96I45: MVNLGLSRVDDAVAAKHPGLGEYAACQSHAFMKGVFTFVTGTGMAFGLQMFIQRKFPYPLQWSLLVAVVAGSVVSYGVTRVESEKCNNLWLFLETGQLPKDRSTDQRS
UniProt Q15363: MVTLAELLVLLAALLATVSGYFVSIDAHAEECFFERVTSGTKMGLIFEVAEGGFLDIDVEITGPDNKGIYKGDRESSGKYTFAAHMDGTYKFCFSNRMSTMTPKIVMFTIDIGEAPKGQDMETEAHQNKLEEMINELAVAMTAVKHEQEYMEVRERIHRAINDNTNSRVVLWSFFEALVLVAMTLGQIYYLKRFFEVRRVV
UniProt Q96CP7: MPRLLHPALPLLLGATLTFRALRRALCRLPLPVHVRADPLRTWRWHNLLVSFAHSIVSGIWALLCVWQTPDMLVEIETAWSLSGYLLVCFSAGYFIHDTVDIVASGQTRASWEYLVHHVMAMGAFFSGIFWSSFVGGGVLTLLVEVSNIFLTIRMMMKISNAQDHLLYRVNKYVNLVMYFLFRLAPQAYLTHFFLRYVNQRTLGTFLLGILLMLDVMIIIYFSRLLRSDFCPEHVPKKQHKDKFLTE
UniProt Q9UKI8: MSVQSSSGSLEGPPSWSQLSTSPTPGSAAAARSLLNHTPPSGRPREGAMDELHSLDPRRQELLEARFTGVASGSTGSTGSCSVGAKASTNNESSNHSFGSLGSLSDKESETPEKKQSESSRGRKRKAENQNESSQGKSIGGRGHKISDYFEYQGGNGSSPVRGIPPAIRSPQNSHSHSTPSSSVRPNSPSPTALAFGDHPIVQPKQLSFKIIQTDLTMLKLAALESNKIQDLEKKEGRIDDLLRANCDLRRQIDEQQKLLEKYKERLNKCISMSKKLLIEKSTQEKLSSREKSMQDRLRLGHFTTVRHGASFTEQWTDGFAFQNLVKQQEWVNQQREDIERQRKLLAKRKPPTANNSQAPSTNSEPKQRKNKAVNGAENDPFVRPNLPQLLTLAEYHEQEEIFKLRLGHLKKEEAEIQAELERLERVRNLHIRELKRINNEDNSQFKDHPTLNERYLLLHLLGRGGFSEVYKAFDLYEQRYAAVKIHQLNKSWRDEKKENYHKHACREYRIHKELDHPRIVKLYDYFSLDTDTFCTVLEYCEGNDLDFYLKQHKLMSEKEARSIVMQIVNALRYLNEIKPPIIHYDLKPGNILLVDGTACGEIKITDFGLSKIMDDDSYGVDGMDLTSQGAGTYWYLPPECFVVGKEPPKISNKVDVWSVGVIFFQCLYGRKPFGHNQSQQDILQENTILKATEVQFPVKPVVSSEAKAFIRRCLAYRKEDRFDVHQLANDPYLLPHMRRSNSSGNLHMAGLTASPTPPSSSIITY
UniProt Q96B96: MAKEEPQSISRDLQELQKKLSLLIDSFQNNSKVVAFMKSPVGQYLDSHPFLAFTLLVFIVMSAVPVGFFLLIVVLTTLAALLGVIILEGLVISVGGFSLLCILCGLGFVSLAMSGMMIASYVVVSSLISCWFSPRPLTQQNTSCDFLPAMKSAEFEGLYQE
UniProt Q9Y2S6, whole entry, looked up: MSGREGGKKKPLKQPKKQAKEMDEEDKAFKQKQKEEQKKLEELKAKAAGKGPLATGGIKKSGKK
UniProt O43422: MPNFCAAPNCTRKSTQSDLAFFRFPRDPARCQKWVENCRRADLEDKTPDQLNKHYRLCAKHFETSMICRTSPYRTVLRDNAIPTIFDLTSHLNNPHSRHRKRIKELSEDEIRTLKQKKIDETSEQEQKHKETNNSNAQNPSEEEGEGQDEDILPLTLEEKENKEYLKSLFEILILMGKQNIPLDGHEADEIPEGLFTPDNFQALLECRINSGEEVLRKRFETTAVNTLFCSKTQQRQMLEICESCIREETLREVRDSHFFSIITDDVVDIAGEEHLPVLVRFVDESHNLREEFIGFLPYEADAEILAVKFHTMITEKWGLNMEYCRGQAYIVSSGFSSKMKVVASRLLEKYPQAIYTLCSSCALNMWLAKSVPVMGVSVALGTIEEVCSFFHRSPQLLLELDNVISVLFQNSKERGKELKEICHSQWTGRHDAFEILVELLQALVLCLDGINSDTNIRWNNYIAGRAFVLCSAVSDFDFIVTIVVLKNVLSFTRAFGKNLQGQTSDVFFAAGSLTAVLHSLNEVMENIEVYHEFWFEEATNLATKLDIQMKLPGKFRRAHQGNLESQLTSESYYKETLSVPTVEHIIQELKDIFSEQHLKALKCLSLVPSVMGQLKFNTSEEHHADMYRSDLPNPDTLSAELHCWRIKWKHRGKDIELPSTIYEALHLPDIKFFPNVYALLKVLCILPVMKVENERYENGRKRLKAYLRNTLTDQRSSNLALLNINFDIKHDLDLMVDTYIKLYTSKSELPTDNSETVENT
UniProt Q9P0S9: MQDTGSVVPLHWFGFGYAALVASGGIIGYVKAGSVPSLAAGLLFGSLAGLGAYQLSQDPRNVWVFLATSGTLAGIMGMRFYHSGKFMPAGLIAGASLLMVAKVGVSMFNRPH
UniProt Q8IYQ7: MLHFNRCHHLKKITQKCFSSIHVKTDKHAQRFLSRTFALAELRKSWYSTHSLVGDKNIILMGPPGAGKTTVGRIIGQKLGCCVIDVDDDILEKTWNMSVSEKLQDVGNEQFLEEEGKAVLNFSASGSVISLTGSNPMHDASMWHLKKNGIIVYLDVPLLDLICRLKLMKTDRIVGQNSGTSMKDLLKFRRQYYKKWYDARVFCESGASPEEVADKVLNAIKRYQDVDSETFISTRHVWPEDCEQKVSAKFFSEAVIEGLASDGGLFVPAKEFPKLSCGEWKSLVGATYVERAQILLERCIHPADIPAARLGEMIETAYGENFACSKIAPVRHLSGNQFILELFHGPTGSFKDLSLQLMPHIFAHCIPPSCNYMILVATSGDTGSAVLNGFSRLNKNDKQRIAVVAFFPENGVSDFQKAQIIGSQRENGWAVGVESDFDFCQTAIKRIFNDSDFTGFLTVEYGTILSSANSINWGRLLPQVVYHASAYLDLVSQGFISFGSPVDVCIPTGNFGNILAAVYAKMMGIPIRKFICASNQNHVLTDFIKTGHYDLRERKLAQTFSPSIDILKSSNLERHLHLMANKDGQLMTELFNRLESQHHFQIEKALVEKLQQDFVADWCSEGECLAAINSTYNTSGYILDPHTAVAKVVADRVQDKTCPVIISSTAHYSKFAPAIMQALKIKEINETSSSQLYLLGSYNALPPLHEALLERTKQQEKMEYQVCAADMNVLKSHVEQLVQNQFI
UniProt Q9BV44: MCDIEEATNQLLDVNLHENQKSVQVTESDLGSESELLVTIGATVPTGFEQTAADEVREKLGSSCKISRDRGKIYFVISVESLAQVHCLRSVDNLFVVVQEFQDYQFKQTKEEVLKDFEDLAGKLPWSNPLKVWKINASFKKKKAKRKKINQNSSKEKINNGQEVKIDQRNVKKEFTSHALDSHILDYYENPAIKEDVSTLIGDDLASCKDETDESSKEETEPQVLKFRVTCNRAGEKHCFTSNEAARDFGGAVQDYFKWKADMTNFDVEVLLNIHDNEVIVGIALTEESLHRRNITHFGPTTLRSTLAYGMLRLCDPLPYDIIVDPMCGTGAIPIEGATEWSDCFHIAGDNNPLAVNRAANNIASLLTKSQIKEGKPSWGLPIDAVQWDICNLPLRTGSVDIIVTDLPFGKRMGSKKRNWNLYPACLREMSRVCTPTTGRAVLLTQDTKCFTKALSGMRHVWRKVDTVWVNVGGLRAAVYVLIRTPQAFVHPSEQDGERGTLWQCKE
UniProt Q6I9Y2: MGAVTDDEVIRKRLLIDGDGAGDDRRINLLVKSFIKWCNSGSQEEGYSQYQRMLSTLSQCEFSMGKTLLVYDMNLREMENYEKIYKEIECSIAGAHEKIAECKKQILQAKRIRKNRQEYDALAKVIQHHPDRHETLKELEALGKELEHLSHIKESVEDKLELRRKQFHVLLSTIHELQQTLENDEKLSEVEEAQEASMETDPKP
UniProt Q5JTD0: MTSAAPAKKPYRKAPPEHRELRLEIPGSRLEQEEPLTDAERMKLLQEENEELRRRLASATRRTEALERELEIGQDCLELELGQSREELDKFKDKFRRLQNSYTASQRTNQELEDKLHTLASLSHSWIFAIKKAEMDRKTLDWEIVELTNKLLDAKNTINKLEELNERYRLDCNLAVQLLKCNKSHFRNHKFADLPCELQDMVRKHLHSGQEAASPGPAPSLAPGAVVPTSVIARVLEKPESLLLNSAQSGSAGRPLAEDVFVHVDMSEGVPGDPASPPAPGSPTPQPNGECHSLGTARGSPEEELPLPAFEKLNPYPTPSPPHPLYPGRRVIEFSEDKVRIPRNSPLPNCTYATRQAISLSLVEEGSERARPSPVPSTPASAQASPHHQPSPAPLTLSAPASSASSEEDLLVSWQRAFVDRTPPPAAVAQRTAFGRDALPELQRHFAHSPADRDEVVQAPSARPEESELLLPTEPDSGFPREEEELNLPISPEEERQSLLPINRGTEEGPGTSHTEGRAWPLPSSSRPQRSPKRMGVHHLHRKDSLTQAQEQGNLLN
UniProt Q9NXG2: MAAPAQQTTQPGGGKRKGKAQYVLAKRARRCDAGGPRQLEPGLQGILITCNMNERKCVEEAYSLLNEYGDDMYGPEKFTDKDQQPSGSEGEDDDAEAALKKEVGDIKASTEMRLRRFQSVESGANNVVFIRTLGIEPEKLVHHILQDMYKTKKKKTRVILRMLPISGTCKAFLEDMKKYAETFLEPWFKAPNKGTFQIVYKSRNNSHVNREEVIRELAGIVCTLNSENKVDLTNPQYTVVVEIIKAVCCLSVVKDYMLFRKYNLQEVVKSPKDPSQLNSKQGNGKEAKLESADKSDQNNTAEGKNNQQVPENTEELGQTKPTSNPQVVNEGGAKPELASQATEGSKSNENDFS
UniProt Q9BXJ8: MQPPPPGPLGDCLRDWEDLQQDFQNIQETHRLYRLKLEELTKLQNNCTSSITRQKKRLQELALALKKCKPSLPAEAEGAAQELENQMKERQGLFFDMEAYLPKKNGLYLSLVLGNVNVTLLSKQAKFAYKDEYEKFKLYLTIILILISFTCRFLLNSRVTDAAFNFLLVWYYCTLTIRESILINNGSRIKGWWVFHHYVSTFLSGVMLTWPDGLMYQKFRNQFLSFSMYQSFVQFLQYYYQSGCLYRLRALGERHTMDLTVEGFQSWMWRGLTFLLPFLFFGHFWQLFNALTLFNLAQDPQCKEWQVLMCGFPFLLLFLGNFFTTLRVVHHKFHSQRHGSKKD
UniProt Q12893: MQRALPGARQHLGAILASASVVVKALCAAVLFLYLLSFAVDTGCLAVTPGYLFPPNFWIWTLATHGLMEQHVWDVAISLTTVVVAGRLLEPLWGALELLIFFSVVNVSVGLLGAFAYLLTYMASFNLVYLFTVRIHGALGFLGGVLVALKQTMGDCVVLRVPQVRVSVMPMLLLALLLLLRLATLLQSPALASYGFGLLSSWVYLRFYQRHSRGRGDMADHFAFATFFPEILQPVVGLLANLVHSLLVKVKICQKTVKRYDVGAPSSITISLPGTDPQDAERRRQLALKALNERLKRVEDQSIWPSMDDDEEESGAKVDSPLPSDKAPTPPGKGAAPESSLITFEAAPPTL
UniProt Q86XR7, whole entry, looked up: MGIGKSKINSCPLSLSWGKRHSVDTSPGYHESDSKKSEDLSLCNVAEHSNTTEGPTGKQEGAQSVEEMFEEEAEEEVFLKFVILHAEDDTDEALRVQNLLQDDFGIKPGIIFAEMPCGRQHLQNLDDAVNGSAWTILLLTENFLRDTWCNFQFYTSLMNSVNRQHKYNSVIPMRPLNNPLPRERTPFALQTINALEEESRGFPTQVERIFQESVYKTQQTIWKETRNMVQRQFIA

Experiments:
Assay in all cases: log2 fold change, soluble protein after heating vs DMSO (PISA); higher = thermal stabilisation; K562 lysate, 10 uM; active = over 0.2 and 3.5 SD of the protein, either way, in both replicates (recomputed)
nilotinib = compound: Cc1cn(-c2cc(NC(=O)c3ccc(C)c(Nc4nccc(-c5cccnc5)n4)c3)cc(C(F)(F)F)c2)cn1 [nilotinib]
In short: (§1)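 Log-two fold change in thermal stability relative to solvent controls is reported from duplicates. For each sample, crude K562 extract from dounce-homogenised pellets in PBS pH 7.4 with 1 mM MgCl2, at 1 mg/mL protein, was treated with 10 μM compound for 30 min. Aliquots heated for 3 min across 48°C-58°C were pooled, brought to 0.5% NP-40 at 4°C and cleared at 21,000xg for 90 min. The supernatant was quantified by TMTpro 16plex LC-MS/MS with channel sums equalised.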

[1] = compound: Cc1nc(Nc2n[nH]c3c2CN(C(=O)N[C@H](CN(C)C)c2ccccc2)C3(C)C)c2sccc2n1
In short: as §1

dasatinib = compound: Cc1nc(Nc2ncc(C(=O)Nc3c(C)cccc3Cl)s2)cc(N2CCN(CCO)CC2)n1 [dasatinib]
In short: as §1

[2] = compound: Cc1ncc(-c2ccnc(Nc3ccc(S(C)(=O)=O)cc3)n2)n1C(C)C
In short: as §1

[3] = compound: Cn1cc(-c2ccc3c(c2)CCN3C(=O)Cc2cccc(C(F)(F)F)c2)c2c(N)ncnc21
In short: as §1

quisinostat = compound: Cn1cc(CNCC2CCN(c3ncc(C(=O)NO)cn3)CC2)c2ccccc21 [quisinostat]
In short: as §1

tipifarnib = compound: Cn1cncc1[C@@](N)(c1ccc(Cl)cc1)c1ccc2c(c1)c(-c1cccc(Cl)c1)cc(=O)n2C [tipifarnib]
In short: as §1

[4] = compound: NC(=O)Nc1cc(-c2cccc(F)c2)sc1C(=O)N[C@H]1CCCNC1
In short: as §1

[5] = compound: NC(=O)c1cnc(N[C@@H]2CCCC[C@@H]2N)nc1Nc1cccc(-n2nccn2)c1
In short: as §1

[6] = compound: NC1(c2ccc(-c3nc4ccn5c(=O)[nH]nc5c4cc3-c3ccccc3)cc2)CCC1
In short: as §1

| Target | log2 fold change (nilotinib) | log2 fold change [1] | log2 fold change (dasatinib) | log2 fold change [2] | log2 fold change [3] | log2 fold change (quisinostat) | log2 fold change (tipifarnib) | log2 fold change [4] | log2 fold change [5] | log2 fold change [6] |
| --- | --- | --- | --- | --- | --- | --- | --- | --- | --- | --- |
| TIMM17A (UniProt Q99595) | inactive: -0.016 | inactive: 0.071 | inactive: 0.051 | inactive: -0.002 | inactive: -0.149 | inactive: 0.006 | inactive: 0 | inactive: 0.024 | inactive: -0.017 | inactive: -0.016 |
| TMBIM1 (UniProt Q969X1) | inactive: 0.015 | inactive: -0.076 | inactive: -0.066 | inactive: -0.026 | inactive: 0 | inactive: -0.067 | inactive: -0.006 | inactive: 0.023 | inactive: -0.053 | inactive: -0.031 |
| THYN1 (UniProt Q9P016) | inactive: 0.005 | inactive: 0.035 | inactive: -0.019 | inactive: 0.019 | inactive: 0.022 | inactive: 0.027 | inactive: 0.004 | inactive: 0.001 | inactive: -0.002 | inactive: -0.006 |
| TIMM9 (UniProt Q9Y5J7) | inactive: 0.066 | inactive: 0.046 | inactive: 0.021 | inactive: 0.146 | inactive: -0.022 | inactive: 0.029 | inactive: 0.052 | inactive: -0.088 | inactive: -0.029 | inactive: -0.025 |
| TMED4 (UniProt Q7Z7H5) | inactive: 0.051 | inactive: -0.073 | inactive: 0.008 | inactive: 0.04 | inactive: -0.038 | inactive: 0.091 | inactive: 0 | inactive: -0.04 | inactive: -0.016 | inactive: -0.029 |
| TIMM50 isoform 2 (UniProt Q3ZCQ8) | inactive: -0.005 | inactive: -0.011 | inactive: -0.007 | inactive: -0.091 | inactive: -0.02 | inactive: -0.049 | inactive: -0.065 | inactive: 0.046 | inactive: 0.015 | inactive: -0.022 |
| TKT, A0A0B4J1R6 | inactive: -0.035 | inactive: -0.016 | inactive: -0.18 | inactive: -0.157 | inactive: -0.058 | inactive: -0.512 | inactive: 0.006 | inactive: -0.023 | inactive: -0.017 | inactive: -0.082 |
| TMEM141 (UniProt Q96I45) | inactive: 0.009 | inactive: -0.022 | inactive: -0.038 | inactive: -0.032 | inactive: 0.018 | inactive: -0.071 | inactive: 0.016 | inactive: -0.058 | inactive: 0.03 | inactive: 0 |
| TMED2 (UniProt Q15363) | inactive: 0.017 | inactive: -0.02 | inactive: 0.005 | inactive: 0.002 | inactive: -0.004 | inactive: 0.095 | inactive: -0.034 | inactive: 0.007 | inactive: 0 | inactive: -0.02 |
| TM9SF4 (UniProt Q92544) | inactive: -0.016 | inactive: -0.01 | inactive: -0.01 | inactive: 0.008 | inactive: 0.012 | inactive: 0.038 | inactive: -0.065 | inactive: -0.025 | inactive: 0.039 | inactive: -0.012 |
| TLCD1 (UniProt Q96CP7) | inactive: 0.087 | inactive: 0.055 | inactive: -0.035 | inactive: 0.175 | inactive: 0.283 | inactive: -0.135 | inactive: 0.051 | inactive: -0.037 | inactive: 0.011 | inactive: -0.137 |
| TLK1 isoform 2 (UniProt Q9UKI8) | inactive: -0.044 | active: 0.414 | inactive: -0.005 | inactive: 0.188 | inactive: -0.036 | inactive: -0.23 | inactive: 0.023 | inactive: 0.133 | inactive: 0.035 | inactive: -0.021 |
| TMEM159 isoform 2 (UniProt Q96B96) | inactive: 0.12 | inactive: 0.197 | inactive: -0.027 | inactive: 0.018 | inactive: -0.003 | inactive: 0.014 | inactive: 0.095 | inactive: -0.057 | inactive: -0.004 | inactive: 0.028 |
| TMA7 (UniProt Q9Y2S6) | inactive: -0.043 | inactive: 0.043 | inactive: 0.06 | inactive: -0.005 | inactive: 0.011 | inactive: 0.214 | inactive: 0.047 | inactive: -0.046 | inactive: 0.019 | inactive: -0.027 |
| THAP12 (UniProt O43422) | inactive: 0.003 | inactive: -0.018 | inactive: -0.025 | inactive: -0.055 | inactive: -0.005 | inactive: -0.099 | inactive: -0.009 | inactive: 0.042 | inactive: 0.033 | inactive: -0.026 |
| TMEM14C (UniProt Q9P0S9) | inactive: 0.065 | inactive: -0.089 | inactive: 0.031 | inactive: 0.13 | inactive: 0.029 | inactive: -0.299 | inactive: -0.017 | inactive: 0.029 | inactive: -0.13 | inactive: -0.07 |
| TMBIM6 isoform 2 (UniProt P55061) | inactive: 0.064 | inactive: -0.039 | inactive: 0.019 | inactive: 0.056 | inactive: 0.005 | inactive: 0.06 | inactive: -0.058 | inactive: -0.018 | inactive: -0.007 | inactive: 0.007 |
| THNSL1 (UniProt Q8IYQ7) | inactive: -0.057 | inactive: 0.04 | inactive: -0.048 | inactive: 0.057 | inactive: 0.077 | inactive: -0.025 | inactive: -0.009 | inactive: -0.021 | inactive: -0.005 | inactive: 0.032 |
| TMEM185B (UniProt Q9H7F4) | inactive: 0.037 | inactive: 0.048 | inactive: -0.081 | inactive: -0.092 | inactive: 0.195 | inactive: -0.061 | inactive: 0.083 | inactive: 0.013 | inactive: -0.046 | inactive: 0.049 |
| THUMPD3 (UniProt Q9BV44) | inactive: 0.006 | inactive: -0.007 | inactive: 0.039 | inactive: 0.002 | inactive: -0.005 | inactive: -0.076 | inactive: 0 | inactive: -0.004 | inactive: -0.016 | inactive: 0.001 |
| TLK2 isoform 2 (UniProt Q86UE8) | inactive: -0.008 | inactive: 0.243 | inactive: -0.004 | inactive: 0.162 | inactive: 0.007 | inactive: -0.099 | inactive: 0.005 | inactive: 0.073 | inactive: 0.048 | inactive: -0.035 |
| THOC7 (UniProt Q6I9Y2) | inactive: 0.03 | inactive: 0.054 | inactive: 0.003 | inactive: 0.112 | inactive: 0.043 | inactive: -0.055 | inactive: -0.003 | inactive: -0.015 | inactive: 0.007 | inactive: 0.016 |
| TJP2 isoform 7 (UniProt Q9UDY2) | inactive: -0.037 | inactive: 0.019 | inactive: -0.022 | inactive: -0.013 | inactive: 0.044 | inactive: 0.021 | inactive: 0.033 | inactive: -0.018 | inactive: 0.007 | inactive: -0.027 |
| TJAP1 (UniProt Q5JTD0) | inactive: 0.004 | inactive: 0.006 | inactive: 0.047 | inactive: 0.065 | inactive: -0.049 | inactive: -0.025 | inactive: -0.045 | inactive: 0.019 | inactive: -0.028 | inactive: -0.05 |
| THUMPD1 (UniProt Q9NXG2) | inactive: 0.019 | inactive: -0.038 | inactive: -0.01 | inactive: 0.021 | inactive: 0.031 | inactive: -0.052 | inactive: 0.001 | inactive: -0.009 | inactive: -0.009 | inactive: -0.008 |
| TMEM168 (UniProt Q9H0V1) | inactive: -0.017 | inactive: 0.047 | inactive: 0.027 | inactive: 0.082 | inactive: -0.023 | inactive: -0.045 | inactive: -0.104 | inactive: -0.004 | inactive: 0.116 | inactive: -0.029 |
| TMEM120A (UniProt Q9BXJ8) | inactive: -0.009 | inactive: -0.031 | inactive: -0.174 | inactive: -0.089 | inactive: -0.057 | inactive: -0.108 | inactive: -0.03 | inactive: 0.006 | inactive: 0.058 | inactive: 0.06 |
| TMEM115 (UniProt Q12893) | inactive: 0.012 | inactive: -0.109 | inactive: 0.05 | inactive: 0.073 | inactive: 0.031 | inactive: -0.061 | inactive: 0.004 | inactive: 0.051 | inactive: 0.06 | inactive: -0.054 |
| TICAM2 isoform 2 (UniProt Q86XR7) | inactive: -0.007 | inactive: -0.042 | inactive: 0.007 | inactive: -0.07 | inactive: 0.002 | inactive: -0.044 | inactive: 0.006 | inactive: 0.008 | inactive: -0.005 | inactive: -0.029 |

Quoted from above (7 entries):

| Target | log2 fold change (nilotinib) | log2 fold change [1] | log2 fold change (dasatinib) | log2 fold change [2] | log2 fold change [3] | log2 fold change (quisinostat) | log2 fold change (tipifarnib) | log2 fold change [4] | log2 fold change [5] | log2 fold change [6] |
| --- | --- | --- | --- | --- | --- | --- | --- | --- | --- | --- |
| TMED2 (UniProt Q15363) | inactive: 0.017 | inactive: -0.02 | inactive: 0.005 | inactive: 0.002 | inactive: -0.004 | inactive: 0.095 | inactive: -0.034 | inactive: 0.007 | inactive: 0 | inactive: -0.02 |
| TM9SF4 (UniProt Q92544) | inactive: -0.016 | inactive: -0.01 | inactive: -0.01 | inactive: 0.008 | inactive: 0.012 | inactive: 0.038 | inactive: -0.065 | inactive: -0.025 | inactive: 0.039 | inactive: -0.012 |
| TLCD1 (UniProt Q96CP7) | inactive: 0.087 | inactive: 0.055 | inactive: -0.035 | inactive: 0.175 | inactive: 0.283 | inactive: -0.135 | inactive: 0.051 | inactive: -0.037 | inactive: 0.011 | inactive: -0.137 |
| TLK1 isoform 2 (UniProt Q9UKI8) | inactive: -0.044 | active: 0.414 | inactive: -0.005 | inactive: 0.188 | inactive: -0.036 | inactive: -0.23 | inactive: 0.023 | inactive: 0.133 | inactive: 0.035 | inactive: -0.021 |
| TMEM159 isoform 2 (UniProt Q96B96) | inactive: 0.12 | inactive: 0.197 | inactive: -0.027 | inactive: 0.018 | inactive: -0.003 | inactive: 0.014 | inactive: 0.095 | inactive: -0.057 | inactive: -0.004 | inactive: 0.028 |
| TMA7 (UniProt Q9Y2S6) | inactive: -0.043 | inactive: 0.043 | inactive: 0.06 | inactive: -0.005 | inactive: 0.011 | inactive: 0.214 | inactive: 0.047 | inactive: -0.046 | inactive: 0.019 | inactive: -0.027 |
| THAP12 (UniProt O43422) | inactive: 0.003 | inactive: -0.018 | inactive: -0.025 | inactive: -0.055 | inactive: -0.005 | inactive: -0.099 | inactive: -0.009 | inactive: 0.042 | inactive: 0.033 | inactive: -0.026 |
